According to the supplement of paper PMC10849652:
The other results are listed elsewhere or left out.

Chains of the proteins cited; added tags and fusions are not shown. Lines headed by an entry give the natural chain unless they say otherwise; changes in a name come on top.
UniProt Q06547, whole entry, looked up: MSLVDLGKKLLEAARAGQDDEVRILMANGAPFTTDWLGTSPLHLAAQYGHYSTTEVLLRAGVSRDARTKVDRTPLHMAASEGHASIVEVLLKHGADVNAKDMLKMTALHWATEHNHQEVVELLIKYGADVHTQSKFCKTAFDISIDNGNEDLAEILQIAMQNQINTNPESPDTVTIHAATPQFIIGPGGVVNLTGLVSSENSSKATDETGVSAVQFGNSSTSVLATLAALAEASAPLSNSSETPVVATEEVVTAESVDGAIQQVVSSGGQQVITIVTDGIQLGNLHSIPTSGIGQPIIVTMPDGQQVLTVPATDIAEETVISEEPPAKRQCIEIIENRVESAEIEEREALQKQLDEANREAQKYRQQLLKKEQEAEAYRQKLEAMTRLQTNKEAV
UniProt Q13069: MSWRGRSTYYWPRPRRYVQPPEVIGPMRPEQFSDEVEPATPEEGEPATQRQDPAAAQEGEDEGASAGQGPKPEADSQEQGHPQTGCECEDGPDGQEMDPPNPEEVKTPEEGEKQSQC
UniProt P19440: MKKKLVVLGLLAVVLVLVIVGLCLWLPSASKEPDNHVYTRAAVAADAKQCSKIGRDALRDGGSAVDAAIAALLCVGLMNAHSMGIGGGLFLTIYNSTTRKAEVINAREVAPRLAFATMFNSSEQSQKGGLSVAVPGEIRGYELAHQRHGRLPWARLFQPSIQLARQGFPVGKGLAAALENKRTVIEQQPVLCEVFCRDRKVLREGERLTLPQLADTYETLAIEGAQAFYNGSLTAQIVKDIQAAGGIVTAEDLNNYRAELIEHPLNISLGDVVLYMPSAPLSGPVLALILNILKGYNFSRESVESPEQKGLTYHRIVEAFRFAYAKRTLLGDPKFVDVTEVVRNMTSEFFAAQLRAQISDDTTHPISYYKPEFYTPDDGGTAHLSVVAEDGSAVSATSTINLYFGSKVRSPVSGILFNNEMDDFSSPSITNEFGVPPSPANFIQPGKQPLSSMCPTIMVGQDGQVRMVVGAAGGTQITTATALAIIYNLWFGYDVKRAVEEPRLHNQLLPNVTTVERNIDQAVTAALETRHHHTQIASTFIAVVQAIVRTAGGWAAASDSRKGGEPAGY
UniProt Q495W5: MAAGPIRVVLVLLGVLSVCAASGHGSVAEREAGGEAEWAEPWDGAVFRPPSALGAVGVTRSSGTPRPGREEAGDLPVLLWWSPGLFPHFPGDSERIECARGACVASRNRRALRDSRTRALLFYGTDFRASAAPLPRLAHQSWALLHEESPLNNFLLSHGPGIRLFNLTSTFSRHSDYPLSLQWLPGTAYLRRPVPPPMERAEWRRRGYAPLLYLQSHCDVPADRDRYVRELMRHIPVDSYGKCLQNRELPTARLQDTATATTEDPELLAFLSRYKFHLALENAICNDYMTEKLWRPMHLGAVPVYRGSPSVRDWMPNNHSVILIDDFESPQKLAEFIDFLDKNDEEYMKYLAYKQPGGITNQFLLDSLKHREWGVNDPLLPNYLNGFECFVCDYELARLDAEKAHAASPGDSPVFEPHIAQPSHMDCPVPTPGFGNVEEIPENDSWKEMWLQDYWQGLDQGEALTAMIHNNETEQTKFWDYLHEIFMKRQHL
UniProt Q04446: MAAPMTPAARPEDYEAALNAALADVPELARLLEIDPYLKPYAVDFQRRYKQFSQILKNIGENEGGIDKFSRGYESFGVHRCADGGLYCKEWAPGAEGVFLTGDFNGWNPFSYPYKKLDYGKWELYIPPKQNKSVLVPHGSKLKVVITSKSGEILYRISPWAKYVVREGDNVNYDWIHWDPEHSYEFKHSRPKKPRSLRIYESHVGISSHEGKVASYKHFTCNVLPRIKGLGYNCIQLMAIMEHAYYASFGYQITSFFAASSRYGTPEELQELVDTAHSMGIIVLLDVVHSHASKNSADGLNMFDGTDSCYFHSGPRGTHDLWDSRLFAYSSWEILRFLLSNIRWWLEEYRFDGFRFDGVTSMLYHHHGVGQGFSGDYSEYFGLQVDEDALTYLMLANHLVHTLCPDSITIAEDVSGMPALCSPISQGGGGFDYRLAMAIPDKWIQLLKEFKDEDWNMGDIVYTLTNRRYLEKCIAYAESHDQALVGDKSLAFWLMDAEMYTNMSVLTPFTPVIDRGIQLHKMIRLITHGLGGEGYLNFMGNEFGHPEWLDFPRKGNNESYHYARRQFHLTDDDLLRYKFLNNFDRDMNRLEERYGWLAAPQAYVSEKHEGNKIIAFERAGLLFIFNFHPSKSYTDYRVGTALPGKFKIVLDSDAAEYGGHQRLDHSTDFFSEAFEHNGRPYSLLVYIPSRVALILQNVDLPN
UniProt Q96DB9: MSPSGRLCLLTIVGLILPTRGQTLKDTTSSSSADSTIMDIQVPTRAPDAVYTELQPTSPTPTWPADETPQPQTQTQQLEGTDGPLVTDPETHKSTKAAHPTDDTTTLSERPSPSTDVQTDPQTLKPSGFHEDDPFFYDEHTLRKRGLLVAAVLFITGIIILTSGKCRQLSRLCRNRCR
UniProt Q9UP38, whole entry, looked up: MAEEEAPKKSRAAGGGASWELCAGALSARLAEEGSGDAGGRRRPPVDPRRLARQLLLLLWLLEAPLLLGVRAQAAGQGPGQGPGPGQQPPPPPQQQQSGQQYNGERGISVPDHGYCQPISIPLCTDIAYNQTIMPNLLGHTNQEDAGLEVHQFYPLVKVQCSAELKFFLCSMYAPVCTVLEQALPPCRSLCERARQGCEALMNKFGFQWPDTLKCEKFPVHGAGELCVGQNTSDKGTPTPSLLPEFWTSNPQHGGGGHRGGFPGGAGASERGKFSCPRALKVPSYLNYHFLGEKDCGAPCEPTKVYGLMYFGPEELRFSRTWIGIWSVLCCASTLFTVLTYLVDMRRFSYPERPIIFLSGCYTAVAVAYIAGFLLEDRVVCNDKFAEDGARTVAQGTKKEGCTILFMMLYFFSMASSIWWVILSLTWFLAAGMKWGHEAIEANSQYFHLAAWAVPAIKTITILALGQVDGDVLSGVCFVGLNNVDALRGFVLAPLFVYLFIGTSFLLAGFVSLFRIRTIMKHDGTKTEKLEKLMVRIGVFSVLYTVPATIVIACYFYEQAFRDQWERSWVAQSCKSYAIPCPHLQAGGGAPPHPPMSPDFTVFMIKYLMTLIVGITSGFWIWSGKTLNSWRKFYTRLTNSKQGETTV
UniProt Q8IY81: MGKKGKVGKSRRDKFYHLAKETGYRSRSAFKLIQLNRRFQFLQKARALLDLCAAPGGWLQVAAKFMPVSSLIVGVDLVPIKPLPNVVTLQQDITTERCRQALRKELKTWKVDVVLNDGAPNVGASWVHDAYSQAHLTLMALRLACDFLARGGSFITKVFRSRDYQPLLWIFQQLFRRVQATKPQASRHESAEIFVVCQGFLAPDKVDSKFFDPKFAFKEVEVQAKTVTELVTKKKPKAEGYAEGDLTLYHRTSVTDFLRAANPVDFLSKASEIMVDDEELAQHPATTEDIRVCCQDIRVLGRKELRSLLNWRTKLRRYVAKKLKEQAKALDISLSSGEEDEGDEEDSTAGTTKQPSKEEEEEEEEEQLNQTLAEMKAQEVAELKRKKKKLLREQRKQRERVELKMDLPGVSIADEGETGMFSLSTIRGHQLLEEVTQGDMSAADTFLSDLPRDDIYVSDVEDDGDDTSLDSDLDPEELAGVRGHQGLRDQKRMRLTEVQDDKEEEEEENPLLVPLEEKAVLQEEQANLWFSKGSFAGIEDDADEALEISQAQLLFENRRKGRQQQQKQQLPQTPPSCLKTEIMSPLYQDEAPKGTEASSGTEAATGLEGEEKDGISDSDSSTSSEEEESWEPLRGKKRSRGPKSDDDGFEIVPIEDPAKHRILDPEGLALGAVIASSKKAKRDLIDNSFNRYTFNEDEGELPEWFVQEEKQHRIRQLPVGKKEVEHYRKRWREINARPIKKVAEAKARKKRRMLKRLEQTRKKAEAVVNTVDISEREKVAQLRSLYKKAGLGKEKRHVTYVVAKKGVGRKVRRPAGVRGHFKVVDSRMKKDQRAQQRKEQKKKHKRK
UniProt P19526, whole entry, looked up: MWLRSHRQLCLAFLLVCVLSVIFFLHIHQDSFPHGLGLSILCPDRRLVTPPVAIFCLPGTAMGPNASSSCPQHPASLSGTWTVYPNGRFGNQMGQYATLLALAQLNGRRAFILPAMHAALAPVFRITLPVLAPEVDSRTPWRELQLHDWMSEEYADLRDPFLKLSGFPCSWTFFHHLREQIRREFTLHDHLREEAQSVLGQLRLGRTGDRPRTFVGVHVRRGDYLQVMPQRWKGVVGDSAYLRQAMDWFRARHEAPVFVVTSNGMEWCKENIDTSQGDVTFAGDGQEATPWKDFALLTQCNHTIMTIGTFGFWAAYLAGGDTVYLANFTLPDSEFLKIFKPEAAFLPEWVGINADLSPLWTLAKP
UniProt P23769: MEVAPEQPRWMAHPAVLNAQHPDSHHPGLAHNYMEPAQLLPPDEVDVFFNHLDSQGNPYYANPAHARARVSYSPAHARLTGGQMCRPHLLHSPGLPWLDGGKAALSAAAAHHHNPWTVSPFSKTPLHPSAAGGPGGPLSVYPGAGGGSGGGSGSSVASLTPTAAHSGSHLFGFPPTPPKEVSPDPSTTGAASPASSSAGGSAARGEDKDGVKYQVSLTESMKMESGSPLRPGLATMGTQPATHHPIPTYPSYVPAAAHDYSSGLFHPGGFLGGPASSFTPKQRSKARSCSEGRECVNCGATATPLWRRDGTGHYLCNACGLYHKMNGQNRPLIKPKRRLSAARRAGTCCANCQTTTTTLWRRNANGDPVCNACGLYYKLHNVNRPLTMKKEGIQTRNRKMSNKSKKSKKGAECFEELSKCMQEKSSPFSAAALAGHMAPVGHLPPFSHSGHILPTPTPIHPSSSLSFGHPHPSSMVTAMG
UniProt Q969S9: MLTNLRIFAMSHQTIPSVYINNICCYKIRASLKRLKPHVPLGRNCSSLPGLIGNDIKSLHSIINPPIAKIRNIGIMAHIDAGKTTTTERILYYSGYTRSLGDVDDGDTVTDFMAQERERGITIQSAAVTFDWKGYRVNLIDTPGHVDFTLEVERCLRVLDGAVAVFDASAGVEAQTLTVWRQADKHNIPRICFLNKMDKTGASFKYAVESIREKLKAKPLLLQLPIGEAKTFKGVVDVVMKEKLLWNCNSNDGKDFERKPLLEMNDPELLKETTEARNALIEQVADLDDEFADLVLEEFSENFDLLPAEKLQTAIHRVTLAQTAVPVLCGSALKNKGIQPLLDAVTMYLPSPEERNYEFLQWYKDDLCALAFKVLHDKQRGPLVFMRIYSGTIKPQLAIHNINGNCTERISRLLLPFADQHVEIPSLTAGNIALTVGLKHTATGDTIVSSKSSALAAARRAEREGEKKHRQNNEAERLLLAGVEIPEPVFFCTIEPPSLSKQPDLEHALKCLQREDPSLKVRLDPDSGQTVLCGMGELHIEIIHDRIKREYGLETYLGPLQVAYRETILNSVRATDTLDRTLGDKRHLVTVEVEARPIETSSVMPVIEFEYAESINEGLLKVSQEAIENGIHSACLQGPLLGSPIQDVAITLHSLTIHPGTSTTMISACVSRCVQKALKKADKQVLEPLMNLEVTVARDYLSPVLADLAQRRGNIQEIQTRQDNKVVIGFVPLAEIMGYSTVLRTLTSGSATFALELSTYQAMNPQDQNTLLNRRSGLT
UniProt P14136, whole entry, looked up: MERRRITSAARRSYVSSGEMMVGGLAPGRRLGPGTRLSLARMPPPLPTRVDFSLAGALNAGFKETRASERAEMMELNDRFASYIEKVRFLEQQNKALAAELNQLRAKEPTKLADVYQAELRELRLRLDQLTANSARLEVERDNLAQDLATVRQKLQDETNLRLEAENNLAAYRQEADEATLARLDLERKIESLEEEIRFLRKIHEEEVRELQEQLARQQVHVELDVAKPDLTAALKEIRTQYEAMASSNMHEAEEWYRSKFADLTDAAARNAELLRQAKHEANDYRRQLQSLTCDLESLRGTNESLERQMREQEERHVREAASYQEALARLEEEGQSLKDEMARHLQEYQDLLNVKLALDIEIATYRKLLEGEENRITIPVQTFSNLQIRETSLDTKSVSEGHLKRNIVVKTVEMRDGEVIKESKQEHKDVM
UniProt Q9BUM1: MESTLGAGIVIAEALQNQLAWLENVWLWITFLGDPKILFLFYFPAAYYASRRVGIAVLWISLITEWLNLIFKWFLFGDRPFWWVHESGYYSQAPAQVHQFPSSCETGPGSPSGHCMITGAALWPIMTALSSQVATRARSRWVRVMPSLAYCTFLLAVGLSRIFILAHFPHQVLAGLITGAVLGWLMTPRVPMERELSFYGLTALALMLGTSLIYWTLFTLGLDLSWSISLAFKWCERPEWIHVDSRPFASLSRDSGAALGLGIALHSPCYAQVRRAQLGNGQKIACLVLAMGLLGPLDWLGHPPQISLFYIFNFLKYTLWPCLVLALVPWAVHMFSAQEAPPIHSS
UniProt Q9BVM4: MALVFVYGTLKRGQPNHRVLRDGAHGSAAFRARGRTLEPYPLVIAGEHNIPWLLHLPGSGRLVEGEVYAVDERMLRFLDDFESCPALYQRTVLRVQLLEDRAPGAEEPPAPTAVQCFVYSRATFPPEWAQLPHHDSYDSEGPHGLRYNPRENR

Columns and labels:
Experiment in all cases: log2 fold change, soluble protein after heating vs DMSO (PISA); higher = thermal stabilisation; K562 cells, 10 uM, 30 min; active = over 0.2 and 3.5 SD of the protein, either way, in both replicates (recomputed)
[1] = compound: COC1=CC=C(C=C1)CN2C=CC3=C2C=C(C=C3)C(=O)NO
Method in brief: (§1)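 Thermal stability values are relative to control samples and come from duplicates. They are expressed as log2 fold changes. For measurement, K562 cells (2×10^6 cells/mL) received 10 μM compound for 30 min, and aliquots were heated for 3 min over 48°C-58°C, pooled, and extracted at 4°C in PBS with 0.5% NP-40. Soluble protein, the supernatant after 21,000xg for 90 min, was quantified by TMTpro 16plex LC-MS/MS with equalised channel sums.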

[2] = compound: CON(C)C(=O)N1N=C(c2cc(F)ccc2F)S[C@@]1(CCCN)c1ccccc1 [filanesib]
Method in brief: as §1

[3] = compound: COc1cc2nc(-c3cc(F)ccc3O)nc(N[C@@H]3CNC[C@H]3C(C)(C)O)c2cc1OC
Method in brief: as §1

[4] = compound: CS(=O)(=O)CCNCc1ccc(-c2ccc3ncnc(Nc4ccc(OCc5cccc(F)c5)c(Cl)c4)c3c2)o1 [lapatinib]
Method in brief: as §1

[5] = compound: CO[C@H]1C[C@@H]2CC[C@@H](C)[C@@](O)(O2)C(=O)C(=O)N2CCCC[C@H]2C(=O)O[C@H]([C@H](C)C[C@@H]2CC[C@H](n3cnnn3)[C@H](OC)C2)CC(=O)[C@H](C)/C=C(\C)[C@@H](O)[C@@H](OC)C(=O)[C@H](C)C[C@H](C)/C=C/C=C/C=C/1C [zotarolimus]
Method in brief: as §1

[6] = compound: COc1cc(C(=O)O)ccc1NC(=O)[C@@H]1N[C@@H](CC(C)(C)C)[C@](C#N)(c2ccc(Cl)cc2F)[C@H]1c1cccc(Cl)c1F [idasanutlin]
Method in brief: as §1

[7] = compound: COc1cc(Nc2ncc3c(n2)-c2ccc(Cl)cc2C(c2c(F)cccc2OC)=NC3)ccc1C(=O)O [alisertib]
Method in brief: as §1

[8] = compound: COc1cc2ncnc(Nc3ccc(F)c(Cl)c3)c2cc1OCCCN1CCOCC1 [gefitinib]
Method in brief: as §1

[9] = compound: COc1cccc2cc(-c3nc([C@H]4CC[C@H](C(=O)O)CC4)n4ncnc(N)c34)[nH]c12
Method in brief: as §1

[10] = compound: CS(=O)(=O)N1CCN(Cc2cc3nc(-c4cccc5[nH]ncc45)nc(N4CCOCC4)c3s2)CC1 [pictilisib]
Method in brief: as §1

Measured: log2 fold change

GABPB1 (UniProt Q06547)
inactive: [1] 0.002 | [2] -0.173 | [3] -0.021 | [4] 0.007

GEMIN2 (UniProt O14893)
inactive: [1] -0.099 | [2] 0.132 | [5] -0.093 | [6] 0.034 | [7] -0.017 | [3] -0.045 | [8] 0.032 | [9] -0.029 | [4] 0.034 | [10] 0.016

FPGS (UniProt Q05932)
inactive: [1] -0.073 | [2] 0.026 | [5] 0.151 | [7] -0.035 | [3] 0.183 | [9] -0.077 | [4] -0.102 | [10] -0.005

GAA (UniProt P10253)
inactive: [1] -0.135 | [2] -0.107 | [6] 0.042 | [7] 0.21 | [9] 0.243 | [10] 0.128

GAGE5 (UniProt Q13069)
inactive: [1] -0.07 | [2] -0.005 | [5] -0.003 | [6] 0.014 | [7] -0.062 | [3] -0.013 | [8] -0.018 | [9] 0.047 | [4] -0.013 | [10] 0.088

GFM1 (UniProt Q96RP9)
inactive: [1] 0.059 | [2] -0.128 | [5] 0.022 | [6] -0.102 | [7] 0.034 | [3] 0.033 | [8] 0.023 | [9] 0.04 | [4] -0.006 | [10] 0.042

GALT (UniProt P07902)
inactive: [1] 0.005 | [2] 0.056 | [5] -0.012 | [6] -0.082 | [7] -0.074 | [3] -0.028 | [8] -0.091 | [9] 0.04 | [4] 0.02 | [10] 0.017

GGT1 (UniProt P19440)
inactive: [1] -0.091 | [2] 0.051 | [6] 0.037 | [7] 0.01 | [3] -0.176 | [9] 0.117 | [4] -0.045 | [10] 0.112

GATB (UniProt O75879)
inactive: [1] 0.185 | [2] 0.047 | [6] -0.464 | [7] -0.047 | [3] 0.282 | [8] 0.046 | [9] 0.013 | [4] -0.225 | [10] 0.34

FUT11 (UniProt Q495W5)
inactive: [1] -0.061 | [2] 0.035 | [5] -0.067 | [6] 0.113 | [7] -0.1 | [3] -0.12 | [8] -0.082 | [9] -0.052 | [4] 0.245 | [10] -0.221

GALNT6 (UniProt Q8NCL4)
inactive: [1] 0.086 | [2] 0.018 | [6] 0.036 | [7] 0.212 | [3] 0.02 | [8] -0.001 | [9] 0.19 | [4] 0.043

GBE1 (UniProt Q04446)
inactive: [1] 0.048 | [5] 0.045 | [6] 0.002 | [7] 0.019 | [3] -0.168 | [9] -0.102 | [4] -0.022

FXYD5 (UniProt Q96DB9)
inactive: [1] -0.091 | [2] 0.522 | [5] -0.007 | [6] 0.034 | [3] -0.003 | [4] -0.264 | [10] 0.504

FZD5 (UniProt Q13467)
inactive: [2] 0.04 | [7] -0.056 | [3] 0.018 | [9] 0.067 | [4] -0.152

FYTTD1 (UniProt Q96QD9)
inactive: [5] -0.007 | [6] 0.156 | [10] -0.024

GAPDH isoform 2 (UniProt P04406)
inactive: [7] 0.054 | [9] 0.167

GANC (UniProt Q8TET4)
inactive: [8] -0.066

GCG (UniProt P01275)
inactive: [5] -0.118

GAGE1 (UniProt Q13065)
inactive: [7] 0.177 | [8] 0.067 | [9] -0.025

GDPGP1 (UniProt Q6ZNW5)
inactive: [5] 0.291 | [6] 0.098 | [7] -0.012 | [3] -0.097 | [8] -0.03 | [9] 0.099 | [4] 0.137

FRMD8 (UniProt Q9BZ67)
inactive: [5] -0.126 | [6] 0.154 | [8] 0.075

FRMPD3 (UniProt Q5JV73)
inactive: [5] -0.293

FUT10 isoform 2 (UniProt Q6P4F1)
inactive: [10] -0.044

FZD1 (UniProt Q9UP38)
inactive: [2] -0.06 | [5] 0.258 | [8] -0.274

FOXJ2 (UniProt Q9P0K8)
inactive: [5] -0.179

GDPD3 (UniProt Q7L5L3)
inactive: [6] 0.063 | [3] 0.008 | [4] -0.073 | [10] -0.041

G0S2 (UniProt P27469)
inactive: [7] 0.124 | [9] -0.094

FTSJ3 (UniProt Q8IY81)
inactive: [2] 0.377 | [5] 0.254 | [6] 0.316 | [3] -0.086 | [4] 0.104 | [10] -0.387

FTSJ1 isoform 2 (UniProt Q9UET6)
inactive: [2] 0.019

GEMIN7 (UniProt Q9H840)
inactive: [7] -0.344 | [9] 0.078 | [10] -0.168

GAS6 isoform 1 (UniProt Q14393)
inactive: [2] 0.147 | [10] 0.02

GANAB (UniProt Q14697)
inactive: [7] -0.122 | [3] 0.052 | [9] -0.099 | [4] -0.413

GALNT3 (UniProt Q14435)
inactive: [10] -0.129

GEMIN8 (UniProt Q9NWZ8)
inactive: [5] -0.011 | [6] 0.132 | [3] 0.36 | [8] 0.163 | [4] 0.03

FRY (UniProt Q5TBA9)
inactive: [2] 0.072 | [6] -0.109 | [7] 0.158 | [9] -0.106 | [10] 0.258

GABPB1 isoform 3 (UniProt Q06547)
inactive: [5] 0.331 | [7] 0.036 | [3] -0.008 | [9] -0.002 | [4] -0.212 | [10] -0.175

FUT1 (UniProt P19526)
inactive: [2] 0.008

GCFC2 isoform 3 (UniProt P16383)
inactive: [3] -0.111 | [4] 0.034

GCFC2 (UniProt P16383)
inactive: [2] -0.078 | [5] 0.071 | [6] 0.04 | [7] -0.078 | [3] 0.085 | [8] -0.029 | [9] 0.088 | [4] 0.044 | [10] -0.04

Pulled one by one from above (3):
GABPB1 isoform 3 (UniProt Q06547)
inactive: [5] 0.331 | [7] 0.036 | [3] -0.008 | [9] -0.002 | [4] -0.212 | [10] -0.175

GEMIN8 (UniProt Q9NWZ8)
inactive: [5] -0.011 | [6] 0.132 | [3] 0.36 | [8] 0.163 | [4] 0.03

FUT1 (UniProt P19526)
inactive: [2] 0.008

Continued.

GID4 (UniProt Q8IVV7)
inactive: [2] -0.089 | [5] 0.013 | [6] -0.023 | [7] -0.074 | [3] 0.097 | [8] -0.067 | [9] 0.01 | [4] -0.14 | [10] 0.024

GATA2 (UniProt P23769)
inactive: [2] 0.264 | [5] 0.029 | [6] 0.011 | [7] 0.083 | [3] 0.111 | [8] -0.073 | [9] -0.075 | [4] 0.027 | [10] 0.078

GFM2 (UniProt Q969S9)
inactive: [7] -0.228 | [9] 0.002

FRYL isoform 2 (UniProt O94915)
inactive: [5] 0.092 | [6] -0.023 | [3] -0.169 | [4] 0.228

GFAP isoform 2 (UniProt P14136)
inactive: [7] 0.395 | [9] 0.281 | [10] 0.133

G6PC3 (UniProt Q9BUM1)
inactive: [7] -0.182 | [3] 0.012 | [8] 0.125 | [9] -0.116 | [4] 0.076

GGACT (UniProt Q9BVM4)
inactive: [7] -0.013 | [9] 0.029

FUNDC1 (UniProt Q8IVP5)
inactive: [2] -0.193 | [7] 0.011 | [3] -0.138 | [9] 0.172 | [4] 0.101
